Experimental data reported in patent US11136349 (dated 2021).

Assay: general procedure: Fmoc solid-phase peptide synthesis; 2-chlorotrityl chloride resin (100-200 mesh, 1.2 meq/g, crosslinked polystyrene); HBTU/DIPEA
Conditions: cyclisation step, HPLC-determined reaction yield

Substance	cyclisation yield
cyclo-[Aba-Ala-Leu-Pbe-Lys(Boc)-Pro-Ala-Phe-Ala-Leu-Pro-Glu(OBu)-Leu-Phe-VaI]	60%
cyclo-[Aba-Ala-Phe-Leu-Pro-Ala-Thr(tBu)-Val-Tyr(tBu)-Leu]	64%
cyclo-[Aba-Phe-(Me)Ala-Tyr(tBu)-Val]	66%
cyclo-[Aba-Phe-Gln(Trt)-Leu-Lys(Boc)]	94%
cyclo-[Aba-Phe-Leu-Ai-Phe(4-Br)]	48%
cyclo-[Aba-Phe-Leu-Ala-His(Trt)]	65%
cyclo-[Aba-Phe-Met-Leu-Glu(OtBu)]	40%
cyclo-[Aba-Phe-Pra-Ala-Lys(Boc)]	82%
cyclo-[Aba-Val-Thr(tBu)-Phe-Trp(Boc)	56%
cyclo-[Aha-Phe-Arg(Bo)2-Ser(tBu)-Ala]	59%
cyclo-[Ahda-Phe-Leu-Ala-Phe]	38%
cyclo[(3-Ac)pa-Phe-Leu-Ala-Phe]	48%
cyclo[(3-Aep)pa-Phe-[Leu-Aa-Phe]	49%
